Data source: PubChem BioAssay AID686938 (Drosophila RNAi Screening Center, 2013)
The screen tested about 23,000 reagents; this is a random part of those that have a named target and a result. In the full data, 75 (0.33%) were called active. 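Raw plate signals without normalisation; calls rest on plate z-scores that were not deposited; ratio present for only 364 wells.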 Reagents against one gene are numbered here. No sequences are given here. Not given: the dose of the treatment.

Test: 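Knock-downs reducing store-operated calcium influx in Drosophila cells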 (primary screen)
Cells: Drosophila S2R+ cells
Reagents: long dsRNA against Drosophila genes, about 0.25 µg dsRNA per well, roughly 10,000 cells
Time to read-out: 5 days of knock-down before the calcium assay
Challenge: thapsigargin (SERCA pump blocker) to empty calcium stores; entry signal taken 4 min after adding it
Measured: 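Per-well fluo-4 fluorescence in two replicates, unnormalised, measured in resting cells and 4 min after store depletion by the SERCA blocker thapsigargin; ratio of the two present in few wells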
Direction: calcium entry signal: higher = stronger calcium signal after store depletion; entry to resting ratio: higher = more calcium entry relative to resting level; resting calcium signal: higher = higher resting calcium signal
Units: calcium entry signal in fluorescence units; resting calcium signal in fluorescence units
Call rule: 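Hit if the duplicate-averaged plate z-score for entry over resting signal is under −3; wells with weak total dye signal (Fmax z < −2) or more than 5 off-targets removed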
Meaning of the calls: active = strongly reduced calcium entry; inactive = no strong reduction

CG12689 | calcium entry signal, replicate 1 = 3.29e7; calcium entry signal, replicate 2 = 3.49e7; resting calcium signal, replicate 1 = 1.59e7; resting calcium signal, replicate 2 = 1.69e7; Outcome = inactive
CG4866 | calcium entry signal, replicate 1 = 3.74e7; calcium entry signal, replicate 2 = 3.08e7; resting calcium signal, replicate 1 = 1.65e7; resting calcium signal, replicate 2 = 1.71e7; Outcome = inactive
mat #1 | calcium entry signal, replicate 1 = 2.05e7; calcium entry signal, replicate 2 = 3.36e7; resting calcium signal, replicate 1 = 1.06e7; resting calcium signal, replicate 2 = 1.45e7; Outcome = inactive
mat #2 | calcium entry signal, replicate 1 = 2.69e7; calcium entry signal, replicate 2 = 4.84e7; resting calcium signal, replicate 1 = 1.42e7; resting calcium signal, replicate 2 = 2.14e7; Outcome = inactive
Jon25Bii | calcium entry signal, replicate 1 = 4.18e7; calcium entry signal, replicate 2 = 3.25e7; resting calcium signal, replicate 1 = 1.96e7; resting calcium signal, replicate 2 = 1.56e7; Outcome = inactive
CG10051 | calcium entry signal, replicate 1 = 3.48e7; calcium entry signal, replicate 2 = 4.01e7; resting calcium signal, replicate 1 = 1.51e7; resting calcium signal, replicate 2 = 1.96e7; Outcome = inactive
pHCl-1 #1 | calcium entry signal, replicate 1 = 3.39e7; calcium entry signal, replicate 2 = 2.67e7; resting calcium signal, replicate 1 = 1.59e7; resting calcium signal, replicate 2 = 1.39e7; Outcome = inactive
pHCl-1 #2 | calcium entry signal, replicate 1 = 4.48e7; calcium entry signal, replicate 2 = 5.85e7; resting calcium signal, replicate 1 = 2.04e7; resting calcium signal, replicate 2 = 2.32e7; Outcome = inactive
pHCl-1 #3 | calcium entry signal, replicate 1 = 4.26e7; calcium entry signal, replicate 2 = 5.18e7; resting calcium signal, replicate 1 = 1.84e7; resting calcium signal, replicate 2 = 1.91e7; Outcome = inactive
pHCl-1 #4 | calcium entry signal, replicate 1 = 4.29e7; calcium entry signal, replicate 2 = 5.56e7; resting calcium signal, replicate 1 = 1.79e7; resting calcium signal, replicate 2 = 1.99e7; Outcome = inactive
CG11155 #1 | calcium entry signal, replicate 1 = 4.03e7; calcium entry signal, replicate 2 = 4.45e7; resting calcium signal, replicate 1 = 2.06e7; resting calcium signal, replicate 2 = 1.80e7; Outcome = inactive
CG11155 #2 | calcium entry signal, replicate 1 = 3.56e7; calcium entry signal, replicate 2 = 3.92e7; resting calcium signal, replicate 1 = 1.62e7; resting calcium signal, replicate 2 = 1.81e7; Outcome = inactive
fd102C | calcium entry signal, replicate 1 = 6.01e7; calcium entry signal, replicate 2 = 5.67e7; entry to resting ratio = 2.1; resting calcium signal, replicate 1 = 2.89e7; resting calcium signal, replicate 2 = 2.33e7; Outcome = inactive
Zip42C.2 | calcium entry signal, replicate 1 = 3.79e7; calcium entry signal, replicate 2 = 4.63e7; resting calcium signal, replicate 1 = 2.00e7; resting calcium signal, replicate 2 = 2.21e7; Outcome = inactive

Ordered by “resting calcium signal, replicate 1” (ascending): 2 of the entries above
mat #2 | calcium entry signal, replicate 1 = 2.69e7; calcium entry signal, replicate 2 = 4.84e7; resting calcium signal, replicate 1 = 1.42e7; resting calcium signal, replicate 2 = 2.14e7; Outcome = inactive
Jon25Bii | calcium entry signal, replicate 1 = 4.18e7; calcium entry signal, replicate 2 = 3.25e7; resting calcium signal, replicate 1 = 1.96e7; resting calcium signal, replicate 2 = 1.56e7; Outcome = inactive
